Source: publication doi:10.1101/2021.01.21.427698
No constants are given. Whether binding was seen depends on the method and setting. Some binding calls cover weakened binding; strength is not graded here. Where a sequence is shown, tags or fusion partners need not be part of it.

T1: full-length human SEPT7 with a TEV-cleavable C-terminal Strep-tag-II (as in the human hexamers) (human), Q16181
T1 chain: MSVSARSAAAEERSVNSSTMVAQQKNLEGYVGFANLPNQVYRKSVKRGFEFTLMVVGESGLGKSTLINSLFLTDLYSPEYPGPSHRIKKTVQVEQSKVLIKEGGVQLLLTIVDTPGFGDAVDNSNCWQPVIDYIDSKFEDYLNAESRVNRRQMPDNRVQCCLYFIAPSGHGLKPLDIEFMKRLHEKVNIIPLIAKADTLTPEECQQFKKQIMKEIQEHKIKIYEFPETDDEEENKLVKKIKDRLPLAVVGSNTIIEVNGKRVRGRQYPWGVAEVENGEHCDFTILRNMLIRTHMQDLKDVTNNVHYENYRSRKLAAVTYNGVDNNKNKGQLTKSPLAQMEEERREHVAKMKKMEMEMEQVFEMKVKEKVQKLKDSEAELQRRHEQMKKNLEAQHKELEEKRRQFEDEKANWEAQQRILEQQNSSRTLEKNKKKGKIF

T2: human SEPT9_i3 with a noncleavable C-terminal Strep-tag-II (as in the mammalian octamers-9_i3) (human) (UniProt Q9UHD8)
T2 sequence: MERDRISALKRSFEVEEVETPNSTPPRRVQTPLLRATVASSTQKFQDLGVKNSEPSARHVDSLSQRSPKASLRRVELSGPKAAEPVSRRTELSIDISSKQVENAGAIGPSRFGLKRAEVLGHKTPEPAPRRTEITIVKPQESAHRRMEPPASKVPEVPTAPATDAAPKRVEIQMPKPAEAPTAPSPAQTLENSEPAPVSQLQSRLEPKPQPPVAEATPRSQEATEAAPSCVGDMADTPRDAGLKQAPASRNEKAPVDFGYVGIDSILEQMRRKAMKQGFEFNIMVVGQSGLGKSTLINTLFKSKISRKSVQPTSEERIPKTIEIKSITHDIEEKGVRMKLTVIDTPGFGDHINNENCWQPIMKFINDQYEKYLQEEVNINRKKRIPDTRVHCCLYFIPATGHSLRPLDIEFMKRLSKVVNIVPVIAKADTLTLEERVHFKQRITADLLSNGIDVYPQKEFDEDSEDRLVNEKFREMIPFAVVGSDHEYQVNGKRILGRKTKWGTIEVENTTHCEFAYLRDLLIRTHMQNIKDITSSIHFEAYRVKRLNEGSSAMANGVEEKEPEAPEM

T3: human SEPT2 with a TEV-cleavable N-terminal His6-tag and its C-terminus fused to msfGFP (human) (UniProt Q15019)
T3 sequence: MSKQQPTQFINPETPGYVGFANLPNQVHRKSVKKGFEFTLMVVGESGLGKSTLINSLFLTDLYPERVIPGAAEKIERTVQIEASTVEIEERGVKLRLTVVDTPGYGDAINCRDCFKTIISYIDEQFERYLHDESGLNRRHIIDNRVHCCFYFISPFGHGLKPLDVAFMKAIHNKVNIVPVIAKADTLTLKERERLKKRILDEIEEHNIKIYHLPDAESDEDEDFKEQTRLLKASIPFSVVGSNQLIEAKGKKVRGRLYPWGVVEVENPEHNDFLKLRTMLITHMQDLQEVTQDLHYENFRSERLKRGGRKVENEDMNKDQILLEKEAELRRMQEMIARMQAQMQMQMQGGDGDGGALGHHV

T4: full-length human SEPT7 with a TEV-cleavable C-terminal Strep-tag-II (as in the human hexamers) (human) (UniProt Q16181)
T4 sequence: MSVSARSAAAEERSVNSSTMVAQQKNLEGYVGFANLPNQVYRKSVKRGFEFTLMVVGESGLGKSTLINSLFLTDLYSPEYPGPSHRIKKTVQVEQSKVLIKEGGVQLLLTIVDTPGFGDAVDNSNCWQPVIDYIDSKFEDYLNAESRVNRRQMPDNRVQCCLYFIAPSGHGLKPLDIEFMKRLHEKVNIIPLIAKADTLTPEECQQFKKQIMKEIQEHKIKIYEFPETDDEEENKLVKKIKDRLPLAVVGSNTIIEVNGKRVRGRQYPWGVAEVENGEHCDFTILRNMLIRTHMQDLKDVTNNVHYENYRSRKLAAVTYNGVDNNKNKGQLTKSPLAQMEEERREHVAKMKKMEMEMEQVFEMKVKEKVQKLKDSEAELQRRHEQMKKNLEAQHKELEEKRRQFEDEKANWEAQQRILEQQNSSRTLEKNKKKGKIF

T5: mouse SEPT2 with a TEV-cleavable N-terminal His6-tag (mouse) (UniProt P42208)
T5 sequence: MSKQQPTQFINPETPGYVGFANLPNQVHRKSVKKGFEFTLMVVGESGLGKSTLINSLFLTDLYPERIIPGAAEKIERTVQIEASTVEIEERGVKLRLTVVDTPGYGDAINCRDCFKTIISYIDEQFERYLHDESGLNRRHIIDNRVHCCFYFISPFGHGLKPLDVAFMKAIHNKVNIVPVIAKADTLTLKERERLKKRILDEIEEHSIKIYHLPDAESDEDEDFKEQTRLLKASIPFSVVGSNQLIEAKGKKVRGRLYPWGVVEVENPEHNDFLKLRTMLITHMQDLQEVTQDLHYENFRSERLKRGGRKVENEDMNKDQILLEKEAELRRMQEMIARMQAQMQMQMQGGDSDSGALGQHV


Assays:
Test in all cases: two-tag affinity co-purification of co-expressed proteins
[1] = molecular target: T1, full-length human SEPT7 with a …; details: remark: other sources report otherwise
[2] = molecular target: T2, human SEPT9_i3 with a noncleavable C-terminal Strep-tag-II (as in the mammalian octamers-9_i3) (human)
[3] = molecular target: T3, human SEPT2 with a TEV-cleavable N-terminal His6-tag and its C-terminus fused to msfGFP (human)
[4] = molecular target: T4, full-length human SEPT7 with a TEV-cleavable C-terminal Strep-tag-II (as in the human hexamers) (human)
[5] = molecular target: T5, mouse SEPT2 with a TEV-cleavable N-terminal His6-tag (mouse)

| binding [1] | binding [2] | binding [3] | binding [4] | binding [5] | Binder |
| --- | --- | --- | --- | --- | --- |
| binds | – | – | – | – | human SEPT2 with a TEV-cleavable N-terminal His6-tag, Q15019 1-361 (protein) MSKQQPTQFINPETPGYVGFANLPNQVHRKSVKKGFEFTLMVVGESGLGKSTLINSLFLTDLYPERVIPGAAEKIERTVQIEASTVEIEERGVKLRLTVVDTPGYGDAINCRDCFKTIISYIDEQFERYLHDESGLNRRHIIDNRVHCCFYFISPFGHGLKPLDVAFMKAIHNKVNIVPVIAKADTLTLKERERLKKRILDEIEEHNIKIYHLPDAESDEDEDFKEQTRLLKASIPFSVVGSNQLIEAKGKKVRGRLYPWGVVEVENPEHNDFLKLRTMLITHMQDLQEVTQDLHYENFRSERLKRGGRKVENEDMNKDQILLEKEAELRRMQEMIARMQAQMQMQMQGGDGDGGALGHHV |
| – | binds | – | – | – | mouse SEPT2 with a TEV-cleavable N-terminal His6-tag (protein, UniProt P42208 1-361) MSKQQPTQFINPETPGYVGFANLPNQVHRKSVKKGFEFTLMVVGESGLGKSTLINSLFLTDLYPERIIPGAAEKIERTVQIEASTVEIEERGVKLRLTVVDTPGYGDAINCRDCFKTIISYIDEQFERYLHDESGLNRRHIIDNRVHCCFYFISPFGHGLKPLDVAFMKAIHNKVNIVPVIAKADTLTLKERERLKKRILDEIEEHSIKIYHLPDAESDEDEDFKEQTRLLKASIPFSVVGSNQLIEAKGKKVRGRLYPWGVVEVENPEHNDFLKLRTMLITHMQDLQEVTQDLHYENFRSERLKRGGRKVENEDMNKDQILLEKEAELRRMQEMIARMQAQMQMQMQGGDSDSGALGQHV |
| binds | – | – | – | – | human SEPT2 with a TEV-cleavable N-terminal His6-tag and its C-terminus fused to msfGFP, Q15019 1-361 (protein) MSKQQPTQFINPETPGYVGFANLPNQVHRKSVKKGFEFTLMVVGESGLGKSTLINSLFLTDLYPERVIPGAAEKIERTVQIEASTVEIEERGVKLRLTVVDTPGYGDAINCRDCFKTIISYIDEQFERYLHDESGLNRRHIIDNRVHCCFYFISPFGHGLKPLDVAFMKAIHNKVNIVPVIAKADTLTLKERERLKKRILDEIEEHNIKIYHLPDAESDEDEDFKEQTRLLKASIPFSVVGSNQLIEAKGKKVRGRLYPWGVVEVENPEHNDFLKLRTMLITHMQDLQEVTQDLHYENFRSERLKRGGRKVENEDMNKDQILLEKEAELRRMQEMIARMQAQMQMQMQGGDGDGGALGHHV |
| – | binds | binds | binds | binds | human SEPT6 (protein, UniProt Q14141-2 1-427) MAATDIARQVGEGCRTVPLAGHVGFDSLPDQLVNKSVSQGFCFNILCVGETGLGKSTLMDTLFNTKFEGEPATHTQPGVQLQSNTYDLQESNVRLKLTIVSTVGFGDQINKEDSYKPIVEFIDAQFEAYLQEELKIRRVLHTYHDSRIHVCLYFIAPTGHSLKSLDLVTMKKLDSKVNIIPIIAKADAISKSELTKFKIKITSELVSNGVQIYQFPTDDESVAEINGTMNAHLPFAVIGSTEELKIGNKMMRARQYPWGTVQVENEAHCDFVKLREMLIRVNMEDLREQTHTRHYELYRRCKLEEMGFKDTDPDSKPFSLQETYEAKRNEFLGELQKKEEEMRQMFVQRVKEKEAELKEAEKELHEKFDRLKKLHQDEKKKLEDKKKSLDDEVNAFKQRKTAAELLQSQGSQAGGSQTLKRDKEKKN |
